Reference: PMC3749136
Results are given in words; binding and its absence hold for the method and conditions named. Binding seen in cells or lysates may run through a third protein. Some results given as binding are weak or reduced against the parent protein; the word gives no strength. Tags and fused reporters may be left off the sequences shown.

Sequences of proteins named here, by UniProt entry; tags and fusion partners are left off.
UniProt Q9R117: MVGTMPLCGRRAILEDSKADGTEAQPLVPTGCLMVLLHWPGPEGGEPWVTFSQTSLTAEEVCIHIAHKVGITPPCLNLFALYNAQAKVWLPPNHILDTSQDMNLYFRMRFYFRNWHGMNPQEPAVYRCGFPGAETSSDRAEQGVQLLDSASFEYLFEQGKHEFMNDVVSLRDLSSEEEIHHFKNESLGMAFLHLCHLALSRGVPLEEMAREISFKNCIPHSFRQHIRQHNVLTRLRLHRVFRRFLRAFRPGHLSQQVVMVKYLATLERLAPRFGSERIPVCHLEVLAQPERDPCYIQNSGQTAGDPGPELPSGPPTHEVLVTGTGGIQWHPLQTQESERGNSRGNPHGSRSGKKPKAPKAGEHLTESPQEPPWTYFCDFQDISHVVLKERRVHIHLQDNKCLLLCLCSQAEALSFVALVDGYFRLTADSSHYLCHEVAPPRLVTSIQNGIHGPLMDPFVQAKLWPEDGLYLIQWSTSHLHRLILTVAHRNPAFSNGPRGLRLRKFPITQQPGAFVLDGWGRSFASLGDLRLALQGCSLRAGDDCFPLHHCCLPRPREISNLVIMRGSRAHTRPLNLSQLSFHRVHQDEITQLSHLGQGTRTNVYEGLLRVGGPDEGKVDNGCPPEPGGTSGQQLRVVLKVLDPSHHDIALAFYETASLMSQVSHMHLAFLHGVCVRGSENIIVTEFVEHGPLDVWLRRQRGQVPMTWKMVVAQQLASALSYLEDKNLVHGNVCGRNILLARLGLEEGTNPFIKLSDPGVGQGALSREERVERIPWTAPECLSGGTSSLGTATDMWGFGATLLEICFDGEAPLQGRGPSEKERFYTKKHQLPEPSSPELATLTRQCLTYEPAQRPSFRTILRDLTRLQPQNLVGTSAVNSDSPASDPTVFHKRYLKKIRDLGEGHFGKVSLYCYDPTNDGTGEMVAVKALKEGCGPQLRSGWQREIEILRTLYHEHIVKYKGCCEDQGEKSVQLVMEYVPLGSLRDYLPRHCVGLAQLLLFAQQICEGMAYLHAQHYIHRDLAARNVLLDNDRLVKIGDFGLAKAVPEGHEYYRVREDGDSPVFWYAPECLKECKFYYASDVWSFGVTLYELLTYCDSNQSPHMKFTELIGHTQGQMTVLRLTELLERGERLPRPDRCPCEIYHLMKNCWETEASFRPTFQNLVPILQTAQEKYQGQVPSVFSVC
UniProt P52332: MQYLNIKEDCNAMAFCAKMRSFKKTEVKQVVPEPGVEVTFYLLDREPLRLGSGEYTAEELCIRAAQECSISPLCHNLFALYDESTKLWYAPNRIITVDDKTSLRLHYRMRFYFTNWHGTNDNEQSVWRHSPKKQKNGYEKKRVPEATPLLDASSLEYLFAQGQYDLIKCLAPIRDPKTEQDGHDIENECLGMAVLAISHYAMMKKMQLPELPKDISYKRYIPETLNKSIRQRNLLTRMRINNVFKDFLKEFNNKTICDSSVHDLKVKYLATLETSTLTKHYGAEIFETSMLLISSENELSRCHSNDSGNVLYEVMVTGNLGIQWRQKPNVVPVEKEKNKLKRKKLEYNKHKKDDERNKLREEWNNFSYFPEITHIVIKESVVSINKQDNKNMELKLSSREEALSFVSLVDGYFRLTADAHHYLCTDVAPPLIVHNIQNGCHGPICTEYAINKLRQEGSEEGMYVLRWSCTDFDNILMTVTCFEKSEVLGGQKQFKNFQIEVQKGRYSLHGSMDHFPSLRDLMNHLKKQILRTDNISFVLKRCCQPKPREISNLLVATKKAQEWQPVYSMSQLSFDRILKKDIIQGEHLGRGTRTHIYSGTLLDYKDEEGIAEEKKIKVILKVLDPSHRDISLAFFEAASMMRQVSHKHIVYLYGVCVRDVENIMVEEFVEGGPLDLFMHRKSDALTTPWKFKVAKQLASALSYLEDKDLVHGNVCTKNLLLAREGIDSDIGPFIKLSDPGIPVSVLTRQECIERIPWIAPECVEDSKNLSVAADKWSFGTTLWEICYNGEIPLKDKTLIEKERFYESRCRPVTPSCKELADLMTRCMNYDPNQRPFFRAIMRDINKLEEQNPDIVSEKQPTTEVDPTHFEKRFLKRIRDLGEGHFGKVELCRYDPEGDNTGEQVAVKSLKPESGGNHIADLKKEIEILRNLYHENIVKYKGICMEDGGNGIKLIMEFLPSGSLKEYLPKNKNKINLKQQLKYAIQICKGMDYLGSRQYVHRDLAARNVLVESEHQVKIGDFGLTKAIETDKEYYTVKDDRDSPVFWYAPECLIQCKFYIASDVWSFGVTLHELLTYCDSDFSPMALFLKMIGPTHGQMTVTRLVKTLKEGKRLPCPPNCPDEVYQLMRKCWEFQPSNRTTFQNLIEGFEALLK
UniProt P52333: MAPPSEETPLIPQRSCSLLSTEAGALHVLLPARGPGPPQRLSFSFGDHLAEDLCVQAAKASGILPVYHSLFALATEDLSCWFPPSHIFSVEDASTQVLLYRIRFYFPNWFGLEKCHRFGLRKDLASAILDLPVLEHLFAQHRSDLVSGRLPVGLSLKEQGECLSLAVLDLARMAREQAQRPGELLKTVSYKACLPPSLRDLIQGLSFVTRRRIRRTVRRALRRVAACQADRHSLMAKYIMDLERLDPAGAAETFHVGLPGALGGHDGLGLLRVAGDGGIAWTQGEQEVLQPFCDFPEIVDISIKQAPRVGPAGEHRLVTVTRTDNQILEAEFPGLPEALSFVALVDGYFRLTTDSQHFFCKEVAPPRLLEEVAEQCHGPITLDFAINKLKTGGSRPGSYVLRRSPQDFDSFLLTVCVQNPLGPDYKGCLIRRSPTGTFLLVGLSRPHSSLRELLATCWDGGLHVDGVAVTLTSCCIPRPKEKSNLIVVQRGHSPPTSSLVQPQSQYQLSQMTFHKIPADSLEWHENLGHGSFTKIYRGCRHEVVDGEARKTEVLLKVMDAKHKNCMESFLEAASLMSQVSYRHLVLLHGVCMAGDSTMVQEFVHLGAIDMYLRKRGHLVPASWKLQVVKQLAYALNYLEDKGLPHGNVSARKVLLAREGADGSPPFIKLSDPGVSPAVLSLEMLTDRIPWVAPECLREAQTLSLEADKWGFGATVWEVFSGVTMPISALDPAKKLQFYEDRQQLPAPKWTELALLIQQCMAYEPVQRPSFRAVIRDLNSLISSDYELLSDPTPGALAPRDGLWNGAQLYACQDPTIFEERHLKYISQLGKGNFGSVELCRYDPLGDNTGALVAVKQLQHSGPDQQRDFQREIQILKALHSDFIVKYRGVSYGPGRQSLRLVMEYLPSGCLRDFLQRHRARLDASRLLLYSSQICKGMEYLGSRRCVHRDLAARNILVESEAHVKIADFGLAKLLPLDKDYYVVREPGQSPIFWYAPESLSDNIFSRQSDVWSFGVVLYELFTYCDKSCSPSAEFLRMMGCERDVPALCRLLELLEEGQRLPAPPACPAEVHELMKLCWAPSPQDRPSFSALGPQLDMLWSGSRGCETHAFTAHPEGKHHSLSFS
UniProt Q62120: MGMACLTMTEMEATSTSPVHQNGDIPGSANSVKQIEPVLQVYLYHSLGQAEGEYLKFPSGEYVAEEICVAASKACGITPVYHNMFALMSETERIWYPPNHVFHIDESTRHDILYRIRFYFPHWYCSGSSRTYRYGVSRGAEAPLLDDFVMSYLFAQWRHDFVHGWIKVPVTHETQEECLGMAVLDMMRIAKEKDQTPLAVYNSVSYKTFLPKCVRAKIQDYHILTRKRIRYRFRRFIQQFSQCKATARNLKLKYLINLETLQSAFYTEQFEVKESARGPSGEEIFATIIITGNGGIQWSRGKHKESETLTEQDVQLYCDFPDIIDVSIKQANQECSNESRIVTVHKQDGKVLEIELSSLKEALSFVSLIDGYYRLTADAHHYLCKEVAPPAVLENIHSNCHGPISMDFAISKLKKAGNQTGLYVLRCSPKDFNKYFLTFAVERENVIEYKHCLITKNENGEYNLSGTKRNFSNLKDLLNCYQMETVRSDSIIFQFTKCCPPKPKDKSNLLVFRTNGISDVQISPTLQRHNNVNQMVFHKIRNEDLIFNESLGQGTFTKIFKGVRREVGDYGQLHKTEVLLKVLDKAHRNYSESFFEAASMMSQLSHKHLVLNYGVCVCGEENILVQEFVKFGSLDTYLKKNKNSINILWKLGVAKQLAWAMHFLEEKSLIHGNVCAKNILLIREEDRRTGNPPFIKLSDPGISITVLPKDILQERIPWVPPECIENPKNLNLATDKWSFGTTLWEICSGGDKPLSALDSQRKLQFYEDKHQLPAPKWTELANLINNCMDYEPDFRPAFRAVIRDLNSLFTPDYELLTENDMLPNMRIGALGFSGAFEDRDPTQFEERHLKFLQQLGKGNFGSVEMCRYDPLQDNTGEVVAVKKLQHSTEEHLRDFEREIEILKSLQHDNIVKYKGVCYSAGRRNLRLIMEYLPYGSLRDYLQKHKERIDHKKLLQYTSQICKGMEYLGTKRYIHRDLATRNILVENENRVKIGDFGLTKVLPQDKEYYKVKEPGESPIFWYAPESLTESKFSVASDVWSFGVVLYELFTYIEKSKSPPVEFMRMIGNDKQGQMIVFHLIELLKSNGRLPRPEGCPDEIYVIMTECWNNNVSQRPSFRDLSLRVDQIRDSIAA

Experiments:
[1] = target: T1, 2Flag-GFP-Shc-1 fusion protein (UniProt P98083); experiment: co-IP; 293T cells co-transfected with Myc-SOCS5 and Flag-Shc-1; MG132 and pervanadate before lysis in 1% NP-40 buffer; anti-Flag M2 immunoprecipitation, blot with anti-SOCS5
T1 sequence (chain, phosphotyrosine at 317 (shown by a phospho-specific antibody for Shc-1-Tyr317)): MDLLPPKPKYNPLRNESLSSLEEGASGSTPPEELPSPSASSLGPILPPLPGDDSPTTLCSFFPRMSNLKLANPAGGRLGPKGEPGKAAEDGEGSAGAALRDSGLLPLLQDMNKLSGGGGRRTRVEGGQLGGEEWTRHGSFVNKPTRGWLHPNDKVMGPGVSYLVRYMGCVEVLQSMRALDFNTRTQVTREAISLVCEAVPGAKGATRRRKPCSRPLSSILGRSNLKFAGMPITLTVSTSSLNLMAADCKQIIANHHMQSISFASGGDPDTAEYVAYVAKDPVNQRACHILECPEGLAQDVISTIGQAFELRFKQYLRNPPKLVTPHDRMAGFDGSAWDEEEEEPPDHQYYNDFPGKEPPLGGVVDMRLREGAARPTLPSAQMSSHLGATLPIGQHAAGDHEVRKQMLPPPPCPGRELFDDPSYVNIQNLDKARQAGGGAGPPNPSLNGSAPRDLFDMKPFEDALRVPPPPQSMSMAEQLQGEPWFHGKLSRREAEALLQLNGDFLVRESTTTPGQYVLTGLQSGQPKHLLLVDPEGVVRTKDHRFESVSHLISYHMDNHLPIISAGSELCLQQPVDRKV

Flag-tagged TYK2 (mouse) = Flag-tagged TYK2 (mouse) (UniProt Q9R117); experiment: co-IP; 293T cells co-transfected with Myc-SOCS5 and Flag-JAK; KALB lysis buffer; anti-Flag (M2) immunoprecipitation, blot with anti-SOCS5
Flag-tagged JAK1 (mouse) = Flag-tagged JAK1 (mouse) (UniProt P52332); experiment: as above
Flag-tagged JAK3 (human) = Flag-tagged JAK3 (human) (UniProt P52333); experiment: as above
Flag-tagged JAK2 (mouse) = Flag-tagged JAK2 (mouse) (UniProt Q62120); experiment: as above

Measured: binding

B1: Myc-tagged SOCS5 (protein, UniProt O54928 1-536)
chain: MDKVGKMWNNLKYRCQNLFSHEGGSRNENVEMNPNRCPSVKEKSISLGEAAPQQESSPLRENVALQLGLSPSKTFSRRNQNCAAEIPQVVEISIEKDSDSGATPGTRLARRDSYSRHAPWGGKKKHSCSTKTQSSLDTEKKFGRTRSGLQRRERRYGVSSMQDMDSVSSRAVGSRSLRQRLQDTVGLCFPMRTYSKQSKPLFSNKRKIHLSELMLEKCPFPAGSDLAQKWHLIKQHTAPVSPHSTFFDTFDPSLVSTEDEEDRLRERRRLSIEEGVDPPPNAQIHTFEATAQVNPLYKLGPKLAPGMTEISGDGSAIPQTNCDSEEDSTTLCLQSRRQKQRQVSGDSHAHVSRQGAWKVHTQIDYIHCLVPDLLQITGNPCYWGVMDRYEAEALLEGKPEGTFLLRDSAQEDYLFSVSFRRYNRSLHARIEQWNHNFSFDAHDPCVFHSSTVTGLLEHYKDPSSCMFFEPLLTISLNRTFPFSLQYICRAVICRCTTYDGIDGLPLPSMLQDFLKEYHYKQKVRVRWLEREPVKAK
binds: all assays above
